# Measurements reported in US20240016783A1, “RILUZOLE FOR THE TREATMENT OF ALZHEIMER'S DISEASE” (Icahn School of Medicine at Mount Sinai, priority 2020, published 2024).
# Like-named read-outs stand apart in the source and are kept apart here.
# Tested on: Alzheimer's disease patients
# [1] = FDG SUVR change, 50 mg twice a day, 6 months, n = 22
# [2] = riluzole vs placebo, 6 month change in FDG PET, Cohen's d
compound,measurement,setting,value
"Nc1nc2ccc(OC(F)(F)F)cc2s1 [Riluzole, 2-Amino-6-(trifluoromethoxy)benzothiazole]","FDG PET longitudinal change over 6 months, AD Progression score, Mean","AD Progression Classifier score change, 50 mg twice a day, 6 months, n = 22",0.245
same,"FDG PET longitudinal change over 6 months, Frontal, Mean",[1],−0.077
same,"FDG PET longitudinal change over 6 months, Hippocampus, Mean",[1],−0.002
same,"FDG PET longitudinal change over 6 months, Orbitofrontal, Mean",[1],0.014
same,"FDG PET longitudinal change over 6 months, Parietal, Mean",[1],−0.005
same,"FDG PET longitudinal change over 6 months, Post Cing-Precuneus, Mean",[1],−0.006
same,"FDG PET longitudinal change over 6 months, Posterior cingulate, Mean",[1],−0.005
same,"FDG PET longitudinal change over 6 months, Precuneus, Mean",[1],"(−0.007,"
same,"FDG PET longitudinal change over 6 months, Right Hippocampus, Mean",[1],0.002
same,"FDG PET longitudinal change over 6 months, Temporal, Mean",[1],0.002
same,"Effect size (d), less decline than placebo, younger group","post-hoc subgroup, PC SUVR change (FIG. 3D), N=7 placebo and 7 riluzole",0.96
same,"Effect size, less decline than placebo, ApoE4 carriers","post-hoc subgroup, PC SUVR change (FIG. 3D), N=8 placebo, 15 riluzole",1.526
same,"Effect size (d), less decline than placebo, ApoE4 non-carriers","post-hoc subgroup, PC SUVR change (FIG. 3D), N=11 placebo, 7 riluzole",0.89
same,"Effect size (d), less decline than placebo, older group","post-hoc subgroup, PC SUVR change (FIG. 3D), N=13 placebo, 15 riluzole",1.370
same,"Effect size (d), AD Progression score",[2],0.57
same,"Effect size (d), Frontal",[2],0.70
same,"Effect size (d), Hippocampus",[2],0.50
same,"Effect size (d), Orbitofrontal",[2],0.86
same,"Effect size (d), Parietal",[2],0.54
same,"Effect size (d), Post Cing-Precuneus",[2],0.88
same,"Effect size (d), Posterior cingulate",[2],1.31
same,"Effect size (d), Precuneus",[2],0.84
same,"Effect size (d), Right Hippocampus",[2],0.72
same,"Effect size (d), Temporal (lateral temporal)",[2],0.80
same,"Effect size (d), Frontal","riluzole vs placebo, 6 month change in FDG PET, Cohen's d, listed as riluzole",0.67
same,Difference to placebo in control regions (FDG PET),"subcortical white matter, pons, and cerebellar vermis",No differences were observed
